# The list shows a part of the results. These are further read-outs of the screen, such as a control signal, another cell line or another target. No call is given for them. Compounds called inactive in the main read-out are mostly missing here. Potencies come from curve fits of mixed quality, noted in brackets.
# Assay: IkB Signaling
# Details: ABC-DLBCL IkBa-CBG/CBR dual luciferase ratio (green luciferase fused to IkBa over red control in OCI-Ly3 lymphoma cells), 4 h
# Outline: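 In this assay, an IκBα–CBG68 fusion accumulates when IKK-driven degradation is blocked; native CBR normalizes for cell number. OCI-Ly3 cells were treated 4 h with compound and doxycycline, then green and red light read after Chroma-Glo addition.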
# [1] = measured here: control luc red channel unless noted
smiles,measurement,setting,value
CC(C)c1nc2ccc(C(=O)Nc3ccccc3F)cc2o1,AC50,[1],"10 µM [falling, partial curve]"
COc1ccc(NC(=O)CCCn2nc(C)c3sc4ccccc4c3c2=O)cc1,AC50,[1],"25.1 µM [falling, single point]"
COc1ccc(-c2nc(CSCC(=O)N3CCN(c4ccc(F)cc4)CC3)c(C)o2)cc1,AC50,[1],"25.1 µM [falling, single point]"
Fc1ccc(C2=CC(c3ccc(F)cc3)n3c(nc4ccccc43)N2)cc1 (stereo not drawn),AC50,[1],"15.8 µM [falling, partial curve]"
CCC(C)Nc1ncnc2c1cnn2-c1ccc(F)cc1 (stereo not drawn),AC50,[1],"10 µM [falling, partial curve]"
Cc1cc(C(=O)Nc2ccc(-n3c(C)nc4ccccc4c3=O)cc2)ccc1[N+](=O)[O-],AC50,[1],"0.0251 µM [rising, full curve, poor fit]"
Cc1nn(C)cc1CNC(=O)c1cnn2c1NC(c1ccc(Br)cc1)CC2C(F)(F)F (stereo not drawn),AC50,[1],"25.1 µM [falling, partial curve]"
O=C(CSc1nnc(-c2ccc(F)cc2)o1)N1CCCc2ccccc21,AC50,[1],"39.8 µM [falling, single point]"
O=C(CCC1N=C2c3ccccc3N=C(SCc3ccc(Cl)cc3)N2C1=O)N1CCN(c2ccccc2)CC1 (stereo not drawn),AC50,[1],"39.8 µM [falling, single point]"
COc1ccc(C2C=C(c3ccc(Cl)c(Cl)c3)Nc3ncnn32)cc1 (stereo not drawn),AC50,[1],"20 µM [falling, single point]"
COC(=O)c1sccc1S(=O)(=O)N(CC(=O)NCc1ccc(C)cc1)c1ccc(C)cc1,AC50,[1],"25.1 µM [falling, partial curve]"
Cc1cc2occ(CC(=O)NC3=NCCS3)c2cc1C(C)C,AC50,[1],"25.1 µM [falling, partial curve]"
Cc1csc(NC(=O)c2sc3nc(-c4cccs4)ccc3c2N)n1,AC50,[1],"3.98 µM [falling, full curve]"
Cc1ccccc1OCCCN1C(=O)C(=O)c2cccc(C)c21,AC50,[1],"39.8 µM [rising, partial curve] [measured here: IkB-luc green channel]"
Cn1nnnc1SCC(=O)Nc1ccc(Oc2ccccc2)cc1,AC50,[1],"3.98 µM [falling, partial curve]"
Cc1ccccc1-c1nnn(CC(=O)Nc2sc3c(c2C#N)CCC(C(C)(C)C)C3)n1 (stereo not drawn),AC50,[1],"10 µM [falling, partial curve]"
Cc1ccc(C)c(SCC(=O)Nc2nnc(-c3ccccc3)o2)c1,AC50,[1],"6.31 µM [rising, single point] [measured here: IkB-luc green channel]"
Cc1ccc2ncc(C(=O)Nc3ccc(OC(F)(F)F)cc3)c(=O)n2c1,AC50,[1],"3.16 µM [rising, partial curve, poor fit]"
CCOC(=O)c1c(NC(=O)c2nc(S(C)(=O)=O)ncc2Cl)sc(C(C)=O)c1C,AC50,[1],"3.16 µM [falling, full curve]"
O=C1CCCc2cc(S(=O)(=O)N3CCCC(C(=O)NCc4ccc(Cl)cc4)C3)ccc2N1 (stereo not drawn),AC50,[1],"25.1 µM [falling, single point]"
O=C(NCC(c1ccc(Cl)cc1)N1CCOCC1)c1ccccc1F (stereo not drawn),AC50,[1],"15.8 µM [falling, single point]"
Cc1ccc(C)c2[nH]c(=O)c(C(c3nnnn3Cc3ccco3)N3CCc4ccccc4C3)cc12 (stereo not drawn),AC50,[1],"39.8 µM [rising, single point] [measured here: IkB-luc green channel]"
CCOc1cc(C2c3c(n[nH]c3C)C(=O)N2c2ccc(Br)cc2)ccc1O (stereo not drawn),AC50,[1],"12.6 µM [falling, partial curve]"
CCOC(=O)C1CCCN(C(=O)c2cc(Nc3ccc(OC)c(OC)c3)nc3ccccc23)C1 (stereo not drawn),AC50,[1],"20 µM [falling, partial curve]"
CCCn1c2ccccc2c2cnn(CC(=O)N3CCN(c4ccccc4)CC3)c(=O)c21,AC50,[1],"39.8 µM [falling, single point]"
CCOc1ccc(NC(=O)c2ncoc2-c2ccco2)cc1,AC50,[1],"10 µM [falling, partial curve]"
O=C(Cn1c(=O)nc(-c2ccccc2)c2cc(Cl)ccc21)Nc1ccc(F)c(Cl)c1,AC50,[1],"12.6 µM [falling, partial curve]"
COC(=O)c1sc(NC(=O)COc2ccccc2OC)nc1C,AC50,[1],"12.6 µM [falling, partial curve]"
CCOC(=O)c1[nH]c2ccccc2c1NC(=O)c1ccc(Br)cc1,AC50,[1],"0.398 µM [rising, full curve, poor fit]"
COc1cccc(-c2nn(C)c3sc(C(=O)N4CCN(c5ccccn5)CC4)cc23)c1,AC50,[1],"6.31 µM [falling, full curve]"
COc1cccc(CNC(=O)C2CCN(S(=O)(=O)c3ccc4c(c3)CCCN4C(C)=O)CC2)c1,AC50,[1],"0.0251 µM [rising, full curve, poor fit]"
CCn1c(=O)c(C(=O)NCc2ccc(OC)c(OC)c2)c(O)c2ccccc21,AC50,[1],"31.6 µM [falling, single point]"
CSCCOC(=O)c1[nH]c2c(c1C)C(=O)CC(c1ccco1)C2 (stereo not drawn),AC50,measured here: IkB-luc green channel,"2 µM [rising, full curve]"
same,AC50,measured here: control luc red channel,"0.631 µM [rising, full curve]"
CCOc1ccc(-c2nc3c(c(SCC(=O)N4CCCCC4)n2)Cc2cccc(OC)c2O3)cc1,AC50,[1],"25.1 µM [falling, partial curve]"
CCCCN1C(=O)C(O)(CC(=O)c2ccc(C(C)(C)C)cc2)c2ccccc21 (stereo not drawn),AC50,[1],"25.1 µM [falling, partial curve]"
Cc1ccc(OCC(=O)Nc2ccc3nc(SCC(=O)N4CCOCC4)sc3c2)cc1,AC50,[1],"12.6 µM [falling, partial curve]"
CCCCNC(=O)CCCn1c(=O)c2ccccc2n(Cc2cccc(Cl)c2)c1=O,AC50,[1],"5.01 µM [rising, single point]"
Cn1c(CN2CCCCC2)nc2cc(NC(=O)c3ccccc3Cl)ccc21,AC50,[1],"25.1 µM [falling, partial curve]"
O=C(NC1CCCC1)c1cc(Nc2cccc(C(F)(F)F)c2)nc2ccccc12,AC50,[1],"1.26 µM [falling, full curve]"
CC(C)(C)C1CCc2onc(C(=O)Nc3cccnc3)c2C1 (stereo not drawn),AC50,[1],"31.6 µM [falling, partial curve]"
CCC(=O)N1CCc2cc(Br)cc(S(=O)(=O)CCC(=O)N3CCN(c4ccccc4F)CC3)c21,AC50,[1],"31.6 µM [falling, single point]"
CCOC(=O)c1cccc(NS(=O)(=O)c2ccc(-c3cnc(C4CC4)o3)cc2)c1,AC50,[1],"39.8 µM [falling, single point]"
O=C(C1CCN(S(=O)(=O)Cc2ccccc2)CC1)N1CCN(c2ccccc2)CC1,AC50,[1],"31.6 µM [falling, single point]"
NC(=O)c1nc(Nc2ccccc2)sc1NC(=O)c1ccccc1Br,AC50,[1],"0.316 µM [falling, full curve, poor fit]"
COc1ccc(OC)c2[nH]c(=O)c(CCNC(=O)c3cc4ccccc4o3)cc12,AC50,[1],"25.1 µM [falling, single point]"
COc1cc(OC)cc(-c2cc3nc(C)c(CCC(=O)NCc4ccc(Cl)cc4)c(C)n3n2)c1,AC50,[1],"3.16 µM [falling, full curve]"
Cc1cccc(N2CCN(C(=O)Cn3ncc4c5ccccc5n(C)c4c3=O)CC2)c1C,AC50,[1],"12.6 µM [falling, partial curve]"
COc1ccc(C(=O)Nc2ccc(-n3nncc3-c3ccccc3)cc2)cc1OC,AC50,[1],"31.6 µM [falling, single point]"
COc1ccc(OC)c(CNC(=O)C2CCN(c3nc4ccccc4nc3C(F)(F)F)CC2)c1,AC50,[1],"25.1 µM [rising, partial curve]"
Cc1ccc(-n2nc(CO)c(C(=O)NCc3cccnc3)n2)cc1,AC50,[1],"25.1 µM [falling, single point]"
CCc1ccc(S(=O)(=O)c2cn(Cc3ccccc3)c3cc(F)c(F)cc3c2=O)cc1,AC50,[1],"10 µM [falling, partial curve]"
CCc1ccccc1Nc1nc2ccccc2c2nncn12,AC50,[1],"39.8 µM [falling, single point]"
COc1cc(NC(=O)Nc2cccc(-c3noc(C)n3)c2)cc(OC)c1OC,AC50,[1],"39.8 µM [falling, single point]"
Cc1cc(N2C(=O)CC(N3CCN(c4ccc(C(=O)c5cccs5)cc4)CC3)C2=O)no1 (stereo not drawn),AC50,[1],"3.16 µM [falling, full curve]"
Cc1ccc(Cl)cc1NC(=O)Cc1ccc(-n2c(C)nc3cccnc32)cc1,AC50,[1],"12.6 µM [falling, partial curve]"
CCCc1nn2c(=O)cc(COC(=O)c3ccccc3NC(=O)c3cccs3)nc2s1,AC50,[1],"12.6 µM [rising, partial curve]"
COc1ccc(N(Cc2cccs2)C(=O)c2ccc(OCC(C)C)cc2)cc1,AC50,[1],"7.94 µM [falling, partial curve]"
O=C(CSc1ncccc1-c1nc2ccccc2[nH]1)N1CCN(c2ccccc2F)CC1,AC50,[1],"0.398 µM [falling, full curve]"
Cc1ccc(OCC(=O)Nc2ccc(Cl)c(-c3nc4ncccc4o3)c2)c(C)c1,AC50,[1],"10 µM [falling, partial curve]"
CCOC(=O)c1cccc(NC(=O)c2cc3c(-c4cccc(OC)c4)nn(C)c3s2)c1,AC50,[1],"3.98 µM [falling, full curve]"
Cc1ccc(S(=O)(=O)c2nc(S(C)(=O)=O)sc2N(C)Cc2ccccc2)cc1,AC50,[1],"15.8 µM [falling, partial curve]"
COc1ccc(NCc2cc3cc4c(cc3n(CC(=O)Nc3cc(C)cc(C)c3)c2=O)OCO4)cc1,AC50,[1],"10 µM [falling, partial curve]"

# Source: PubChem BioAssay AID445 (National Center for Advancing Translational Sciences (NCATS), 2006)
